Where only a bound is given, the exact number is not on record here.

For data set [1], the system named is HeLa cell lines (human cervix carcinoma, ATCC CCL-2). As to the kind of experiment: MTT proliferation assay, HeLa cell lines. The conditions noted are these: Selectivity Index = IC50 value normal cell (Vero)/IC50 value cancer cell (Hela). The format is cell-based. The protocol:
(§1) The cytotoxic activity of the synthesized compounds was evaluated against human cervix carcinoma (HeLa, ATCC CCL-2) cell lines, human estrogen-dependent breast carcinoma (MCF7, ATCC HTB-22) cell lines, and kidney of an African green monkey (Vero, ATCC CCL-81) as a normal cell lines using the methyl thiazolyl tetrazolium (MTT) method conducted according to the MTT assay protocol published by the American Type Culture Collection (ATCC). Cisplatin was used as a reference drug. Curcumin was also evaluated as a comparative compound on the tests against Vero and MCF7 cell lines, and doxorubicin was evaluated as an additional comparator on the test against MCF7 cell lines. The assay detects the reduction of yellow tetrazolium (MTT) by metabolically active cells to be purple formazan measured using spectrophotometry.
(§2) The cells lines were seeded into 96-well plates at a density of 5000 cells per well, replenished with growth media consisting of Dulbecco’s Modified Eagle’s medium (D-MEM) for Vero or Roswell Park Memorial Institute (RPMI) 1640 medium for MCF7 and HeLa, 5% Fetal Bovine Serum (FBS), 100 U/mL penicillin, and 100 μg/mL streptomycin. The cells were incubated at 37 °C in 5% CO2 for 24 h. Then, a series concentrations of the tested compounds (1.5, 3.1, 6.2, 12.5, 25.0, 50.0, 100.0, and 200.0 µg/mL) were added to each well of the plate and incubated for 48 h. After that, 10 μL fresh solution of MTT reagent was added to each well, and the plate was incubated in a CO2 incubator at 37 °C for 4 h. After the purple precipitate was obtained, the cells were dissolved in ethanol and their optical density was recorded at 595 nm. The experiment was performed in triplicate. Percent proliferation inhibition was calculated using the following formula: Viability cells inhibition (%)=100−[(At−Ab)/(Ac−Ab)] ×100%
(§3) At = absorption of test compound, Ab = absorption of blank, Ac = absorption of control.
(§4) The concentration of the synthesized compounds required to inhibit 50% of the growth of the cell lines (IC50 values) was calculated by analyzing the relationship between concentrations and percent (%) inhibitions using GraphPad Prism 7 version 7.00 for Windows, GraphPad Software, La Jolla, CA, USA, www.graphpad.com.
(Tetrazolium dyes change colour on reduction, which living cells bring about.)

Data set [2] concerns MCF7 cell lines (human estrogen-dependent breast carcinoma, ATCC HTB-22). As to the kind of experiment: MTT proliferation assay, MCF7 cell lines. It counts as cell-based. The conditions noted are these: Selectivity Index = IC50 value normal cell (Vero)/IC50 value cancer cell (MCF7). The protocol:
as §1, §2, §3, §4

As to `CCN(CC)Cc1cc(/C=C2\CCC/C(=C\c3ccc(Cl)cc3)C2=O)cc(OC)c1O` [Compound 2d, (2E,6E)-2-({3-[(diethylamino)methyl]-4-hydroxy-5-methoxyphenyl}methylidene)-6-[(4-chlorophenyl)methylidene]cyclohexan-1-one], in data set [1], the “SI Hela” value is reported as under 1.

For the compound `CCN(CC)Cc1cc(/C=C2\CCC/C(=C\c3ccc(F)cc3)C2=O)cc(OC)c1O` [Compound 2c, (2E,6E)-2-({3-[(diethylamino)methyl]-4-hydroxy-5-methoxyphenyl}methylidene)-6-[(4-fluorophenyl)methylidene]cyclohexan-1-one], the “SI Hela” value in data set [1] is under 1.

Turning to `CCN(CC)Cc1cc(/C=C2\CCC/C(=C\c3ccc(OC)cc3)C2=O)cc(OC)c1O` [Compound 2b, (2E,6E)-2-({3-[(diethylamino)methyl]-4-hydroxy-5-methoxyphenyl}methylidene)-6-[(4-methoxyphenyl)methylidene]cyclohexan-1-one], the “SI Hela” value in data set [1] is under 1.

Regarding `N.N.[Cl][Pt][Cl]` [Cisplatin, reference compound], in data set [1], the “SI Hela” value stood at 1.26. For the same compound, in data set [2], the “SI MCF7” value was 6.61.

With `COc1cc(/C=C2\CCC/C(=C\c3ccc(Cl)cc3)C2=O)ccc1O` [Compound 1d, (2E,6E)-2-[(4-hydroxy-3-methoxyphenyl)methylidene]-6-[(4-chlorophenyl)methylidene] cyclohexan-1-one], the “SI Hela” value in data set [1] was under 1. The “SI MCF7” value in data set [2] was under 1.

`COc1cc(/C=C/C(=O)CC(=O)/C=C/c2ccc(O)c(OC)c2)ccc1O` [Curcumin]: the “SI MCF7” value in data set [2] turned out to be 3.00.

As for `COc1cc(/C=C2\CCC/C(=C\c3ccc(F)cc3)C2=O)ccc1O` [Compound 1c, (2E,6E)-2-[(4-hydroxy-3-methoxyphenyl)methylidene]-6-[(4-fluorophenyl)methylidene] cyclohexan-1-one], in data set [1], the “SI Hela” value is on record as under 1.

In the case of `CCN(CC)Cc1cc(/C=C2\CCC/C(=C\c3ccccc3)C2=O)cc(OC)c1O` [Compound 2a, (2E,6E)-2-({3-[(diethylamino)methyl]-4-hydroxy-5-methoxyphenyl}methylidene)-6-(phenylmethylidene)cyclohexan-1-one], the “SI Hela” value in data set [1] is under 1.

Take `CCN(CC)Cc1cc(/C=C2\CCC/C(=C\c3ccc(C)cc3)C2=O)cc(OC)c1O` [Compound 2e, (2E,6E)-2-({3-[(diethylamino)methyl]-4-hydroxy-5-methoxyphenyl}methylidene)-6-[(4-methylphenyl)methylidene]cyclohexan-1-one]: the “SI Hela” value in data set [1] is on record as under 1. The “SI MCF7” value in data set [2] was 1.03.

Consider `COc1ccc(/C=C2\CCC/C(=C\c3ccc(O)c(OC)c3)C2=O)cc1` [Compound 1b, (2E,6E)-2-[(4-hydroxy-3-methoxyphenyl)methylidene]-6-[(4-methoxyphenyl)methylidene] cyclohexan-1-one], for which the “SI Hela” value in data set [1] is listed as under 1. Moreover, the “SI MCF7” value in data set [2] came out at 1.96.

Turning to `COc1cc(/C=C2\CCC/C(=C\c3ccccc3)C2=O)ccc1O` [Compound 1a, (2E,6E)-2-[(4-hydroxy-3-methoxyphenyl)methylidene]-6-(phenylmethylidene)cyclohexan-1-one], the “SI Hela” value in data set [1] was under 1. Further, the “SI MCF7” value in data set [2] is under 1.

Turning to `COc1cc(/C=C2\CCC/C(=C\c3ccc(C)cc3)C2=O)ccc1O` [Compound 1e, (2E,6E)-2-[(4-hydroxy-3-methoxyphenyl)methylidene]-6-[(4-methylphenyl)methylidene] cyclohexan-1-one], the “SI Hela” value in data set [1] was under 1. Further, the “SI MCF7” value in data set [2] was determined as 1.55.
